# Reference: the supplement of paper PMC12819154, “High-throughput peptide-centric local stability assay extends protein–ligand identification to membrane proteins, tissues and bacteria” (Nature Structural & Molecular Biology, 2025)
# Amino acid sequences for entries named in this document (tags omitted). A change or cut given only in a name is not applied to a line headed by its entry.
# UniProt O15037: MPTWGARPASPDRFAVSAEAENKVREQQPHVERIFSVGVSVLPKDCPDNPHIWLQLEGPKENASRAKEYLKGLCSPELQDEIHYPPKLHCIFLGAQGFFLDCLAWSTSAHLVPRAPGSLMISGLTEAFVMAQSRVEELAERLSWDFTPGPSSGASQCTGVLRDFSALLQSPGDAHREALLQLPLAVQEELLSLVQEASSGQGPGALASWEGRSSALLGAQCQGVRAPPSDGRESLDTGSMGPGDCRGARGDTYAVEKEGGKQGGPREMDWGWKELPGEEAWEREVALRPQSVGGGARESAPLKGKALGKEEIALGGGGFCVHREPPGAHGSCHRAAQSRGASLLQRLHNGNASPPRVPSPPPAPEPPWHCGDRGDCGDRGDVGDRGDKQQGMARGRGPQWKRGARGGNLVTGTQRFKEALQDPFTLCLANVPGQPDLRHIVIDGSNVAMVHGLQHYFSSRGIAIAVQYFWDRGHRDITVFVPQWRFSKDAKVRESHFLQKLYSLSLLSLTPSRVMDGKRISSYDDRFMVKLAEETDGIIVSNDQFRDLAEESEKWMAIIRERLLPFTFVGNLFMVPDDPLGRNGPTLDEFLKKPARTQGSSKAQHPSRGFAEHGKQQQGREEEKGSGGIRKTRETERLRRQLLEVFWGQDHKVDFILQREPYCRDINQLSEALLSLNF
# UniProt O15270: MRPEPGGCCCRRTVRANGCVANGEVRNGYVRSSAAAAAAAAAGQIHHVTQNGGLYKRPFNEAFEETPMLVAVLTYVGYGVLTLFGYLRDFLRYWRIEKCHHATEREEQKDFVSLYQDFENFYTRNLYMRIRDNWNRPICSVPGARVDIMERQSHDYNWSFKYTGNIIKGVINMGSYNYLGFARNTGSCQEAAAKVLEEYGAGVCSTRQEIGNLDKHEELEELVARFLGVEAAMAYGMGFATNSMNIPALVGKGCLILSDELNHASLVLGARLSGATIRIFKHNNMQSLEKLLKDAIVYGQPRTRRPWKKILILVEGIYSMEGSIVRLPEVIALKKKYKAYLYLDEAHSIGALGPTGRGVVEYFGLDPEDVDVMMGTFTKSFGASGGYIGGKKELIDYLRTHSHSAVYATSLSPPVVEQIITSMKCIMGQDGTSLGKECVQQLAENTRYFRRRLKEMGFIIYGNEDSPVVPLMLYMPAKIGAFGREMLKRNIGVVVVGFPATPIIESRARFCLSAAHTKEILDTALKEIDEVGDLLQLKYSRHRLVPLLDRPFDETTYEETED
# UniProt O14924: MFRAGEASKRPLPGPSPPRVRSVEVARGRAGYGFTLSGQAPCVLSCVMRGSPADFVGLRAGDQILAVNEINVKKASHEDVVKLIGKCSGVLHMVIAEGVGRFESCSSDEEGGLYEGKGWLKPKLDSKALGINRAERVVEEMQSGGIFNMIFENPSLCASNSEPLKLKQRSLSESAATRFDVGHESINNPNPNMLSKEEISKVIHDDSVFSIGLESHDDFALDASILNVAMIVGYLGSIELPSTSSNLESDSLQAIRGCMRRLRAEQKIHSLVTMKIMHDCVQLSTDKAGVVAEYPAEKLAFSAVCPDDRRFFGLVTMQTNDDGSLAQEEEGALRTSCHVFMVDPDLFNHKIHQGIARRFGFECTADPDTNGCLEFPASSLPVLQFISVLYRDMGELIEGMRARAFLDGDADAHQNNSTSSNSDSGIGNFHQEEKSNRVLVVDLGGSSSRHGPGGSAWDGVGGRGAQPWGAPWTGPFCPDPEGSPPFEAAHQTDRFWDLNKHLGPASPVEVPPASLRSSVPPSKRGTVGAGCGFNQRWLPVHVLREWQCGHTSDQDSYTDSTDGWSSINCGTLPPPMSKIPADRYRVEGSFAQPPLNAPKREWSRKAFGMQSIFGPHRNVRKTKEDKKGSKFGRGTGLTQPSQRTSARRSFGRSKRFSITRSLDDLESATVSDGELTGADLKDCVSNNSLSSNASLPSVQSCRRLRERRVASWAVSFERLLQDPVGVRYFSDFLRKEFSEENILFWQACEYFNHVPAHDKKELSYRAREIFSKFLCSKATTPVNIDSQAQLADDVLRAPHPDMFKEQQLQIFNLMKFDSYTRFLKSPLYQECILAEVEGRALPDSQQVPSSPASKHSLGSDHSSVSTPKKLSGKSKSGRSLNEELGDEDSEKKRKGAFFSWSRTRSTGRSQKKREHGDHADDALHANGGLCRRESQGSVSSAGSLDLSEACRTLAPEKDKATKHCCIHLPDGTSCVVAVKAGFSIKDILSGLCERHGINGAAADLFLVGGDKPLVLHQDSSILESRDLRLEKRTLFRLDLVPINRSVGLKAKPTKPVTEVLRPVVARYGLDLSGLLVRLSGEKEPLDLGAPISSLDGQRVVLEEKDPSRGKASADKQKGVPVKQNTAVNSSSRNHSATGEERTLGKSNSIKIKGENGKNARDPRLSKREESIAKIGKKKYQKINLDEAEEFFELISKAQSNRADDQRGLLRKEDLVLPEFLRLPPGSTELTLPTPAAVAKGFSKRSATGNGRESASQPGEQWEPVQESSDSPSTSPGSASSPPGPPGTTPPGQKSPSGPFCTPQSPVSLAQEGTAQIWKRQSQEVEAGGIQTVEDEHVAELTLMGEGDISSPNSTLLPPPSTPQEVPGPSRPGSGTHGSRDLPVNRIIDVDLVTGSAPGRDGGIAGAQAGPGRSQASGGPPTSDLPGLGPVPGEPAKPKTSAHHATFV
# UniProt C9JLW8: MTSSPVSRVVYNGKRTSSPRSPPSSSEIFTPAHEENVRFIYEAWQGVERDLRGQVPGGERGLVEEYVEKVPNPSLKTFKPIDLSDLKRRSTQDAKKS
# UniProt O14640: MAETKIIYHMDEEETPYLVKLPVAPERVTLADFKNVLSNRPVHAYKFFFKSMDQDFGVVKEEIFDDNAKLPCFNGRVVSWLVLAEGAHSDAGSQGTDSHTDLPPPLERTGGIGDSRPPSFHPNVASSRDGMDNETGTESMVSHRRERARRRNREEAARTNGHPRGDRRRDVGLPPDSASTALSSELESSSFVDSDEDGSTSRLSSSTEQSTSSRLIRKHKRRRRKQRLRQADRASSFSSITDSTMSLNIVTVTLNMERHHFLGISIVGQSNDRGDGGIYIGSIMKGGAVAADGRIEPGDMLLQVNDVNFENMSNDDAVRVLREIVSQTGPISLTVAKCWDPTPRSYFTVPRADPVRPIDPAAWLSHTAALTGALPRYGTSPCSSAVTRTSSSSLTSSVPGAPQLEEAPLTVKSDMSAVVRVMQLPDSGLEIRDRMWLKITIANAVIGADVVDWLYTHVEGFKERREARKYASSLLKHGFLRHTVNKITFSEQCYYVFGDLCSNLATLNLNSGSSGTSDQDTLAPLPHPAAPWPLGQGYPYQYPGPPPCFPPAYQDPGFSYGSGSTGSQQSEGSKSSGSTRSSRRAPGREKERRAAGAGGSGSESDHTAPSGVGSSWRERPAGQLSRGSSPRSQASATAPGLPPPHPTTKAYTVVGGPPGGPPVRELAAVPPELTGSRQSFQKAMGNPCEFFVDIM
# UniProt O14562: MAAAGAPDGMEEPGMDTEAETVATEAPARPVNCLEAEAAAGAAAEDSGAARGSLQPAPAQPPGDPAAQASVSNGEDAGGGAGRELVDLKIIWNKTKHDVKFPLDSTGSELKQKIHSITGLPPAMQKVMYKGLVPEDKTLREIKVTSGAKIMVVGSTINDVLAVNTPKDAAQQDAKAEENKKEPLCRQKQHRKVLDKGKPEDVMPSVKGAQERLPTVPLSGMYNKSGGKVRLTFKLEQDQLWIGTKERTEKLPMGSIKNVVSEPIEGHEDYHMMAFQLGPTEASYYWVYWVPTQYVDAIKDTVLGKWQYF
# UniProt E9PAV3, whole entry: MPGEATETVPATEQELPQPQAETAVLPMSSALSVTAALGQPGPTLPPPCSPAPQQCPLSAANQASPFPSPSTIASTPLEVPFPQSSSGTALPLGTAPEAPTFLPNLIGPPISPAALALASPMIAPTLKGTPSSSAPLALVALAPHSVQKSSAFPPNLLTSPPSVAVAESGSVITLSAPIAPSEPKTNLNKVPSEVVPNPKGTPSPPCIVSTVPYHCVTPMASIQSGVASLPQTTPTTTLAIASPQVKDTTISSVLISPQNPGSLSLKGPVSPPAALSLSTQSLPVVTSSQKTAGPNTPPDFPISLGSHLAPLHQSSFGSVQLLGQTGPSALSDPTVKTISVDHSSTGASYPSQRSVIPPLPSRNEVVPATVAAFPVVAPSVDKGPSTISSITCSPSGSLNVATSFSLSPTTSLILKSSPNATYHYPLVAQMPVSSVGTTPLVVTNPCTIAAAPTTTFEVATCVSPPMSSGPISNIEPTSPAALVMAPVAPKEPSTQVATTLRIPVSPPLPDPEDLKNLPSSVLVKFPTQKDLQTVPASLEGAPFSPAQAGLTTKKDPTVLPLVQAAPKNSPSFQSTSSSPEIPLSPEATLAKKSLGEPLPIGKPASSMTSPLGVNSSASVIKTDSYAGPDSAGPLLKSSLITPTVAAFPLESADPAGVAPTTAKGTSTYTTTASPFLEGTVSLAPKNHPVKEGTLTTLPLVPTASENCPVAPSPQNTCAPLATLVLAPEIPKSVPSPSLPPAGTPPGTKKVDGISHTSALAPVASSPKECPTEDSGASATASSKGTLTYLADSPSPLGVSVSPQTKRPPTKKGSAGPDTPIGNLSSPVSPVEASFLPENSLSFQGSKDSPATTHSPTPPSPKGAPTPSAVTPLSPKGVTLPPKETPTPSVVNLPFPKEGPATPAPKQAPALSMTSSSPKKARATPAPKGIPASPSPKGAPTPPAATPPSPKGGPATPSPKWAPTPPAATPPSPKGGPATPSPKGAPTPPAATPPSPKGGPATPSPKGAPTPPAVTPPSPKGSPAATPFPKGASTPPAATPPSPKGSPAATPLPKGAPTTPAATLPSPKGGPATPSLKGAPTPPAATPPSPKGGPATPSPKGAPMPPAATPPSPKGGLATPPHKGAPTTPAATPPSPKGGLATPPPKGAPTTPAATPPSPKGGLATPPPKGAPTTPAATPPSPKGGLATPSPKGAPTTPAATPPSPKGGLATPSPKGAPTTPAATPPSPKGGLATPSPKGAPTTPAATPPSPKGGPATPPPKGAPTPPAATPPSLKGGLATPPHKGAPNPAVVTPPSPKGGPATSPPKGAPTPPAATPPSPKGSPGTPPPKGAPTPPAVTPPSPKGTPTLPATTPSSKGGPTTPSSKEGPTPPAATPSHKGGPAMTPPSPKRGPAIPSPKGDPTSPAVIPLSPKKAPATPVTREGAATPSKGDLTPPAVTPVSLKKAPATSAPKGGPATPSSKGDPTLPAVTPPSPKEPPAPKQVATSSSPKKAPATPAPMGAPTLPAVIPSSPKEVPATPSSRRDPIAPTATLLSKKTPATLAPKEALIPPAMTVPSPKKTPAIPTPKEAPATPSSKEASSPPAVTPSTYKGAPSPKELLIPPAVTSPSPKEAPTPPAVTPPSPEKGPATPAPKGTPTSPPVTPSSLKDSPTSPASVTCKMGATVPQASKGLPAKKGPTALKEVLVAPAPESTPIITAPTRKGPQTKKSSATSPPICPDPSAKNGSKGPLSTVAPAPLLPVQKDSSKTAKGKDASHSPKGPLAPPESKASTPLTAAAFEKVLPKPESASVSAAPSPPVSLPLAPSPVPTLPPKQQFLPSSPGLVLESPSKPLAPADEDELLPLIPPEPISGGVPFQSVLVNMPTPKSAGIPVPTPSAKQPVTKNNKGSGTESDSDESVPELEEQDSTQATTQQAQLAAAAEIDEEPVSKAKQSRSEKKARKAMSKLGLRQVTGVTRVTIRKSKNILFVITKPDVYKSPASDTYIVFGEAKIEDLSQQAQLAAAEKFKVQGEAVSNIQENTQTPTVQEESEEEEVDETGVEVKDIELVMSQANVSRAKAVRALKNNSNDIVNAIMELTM
# UniProt O14523: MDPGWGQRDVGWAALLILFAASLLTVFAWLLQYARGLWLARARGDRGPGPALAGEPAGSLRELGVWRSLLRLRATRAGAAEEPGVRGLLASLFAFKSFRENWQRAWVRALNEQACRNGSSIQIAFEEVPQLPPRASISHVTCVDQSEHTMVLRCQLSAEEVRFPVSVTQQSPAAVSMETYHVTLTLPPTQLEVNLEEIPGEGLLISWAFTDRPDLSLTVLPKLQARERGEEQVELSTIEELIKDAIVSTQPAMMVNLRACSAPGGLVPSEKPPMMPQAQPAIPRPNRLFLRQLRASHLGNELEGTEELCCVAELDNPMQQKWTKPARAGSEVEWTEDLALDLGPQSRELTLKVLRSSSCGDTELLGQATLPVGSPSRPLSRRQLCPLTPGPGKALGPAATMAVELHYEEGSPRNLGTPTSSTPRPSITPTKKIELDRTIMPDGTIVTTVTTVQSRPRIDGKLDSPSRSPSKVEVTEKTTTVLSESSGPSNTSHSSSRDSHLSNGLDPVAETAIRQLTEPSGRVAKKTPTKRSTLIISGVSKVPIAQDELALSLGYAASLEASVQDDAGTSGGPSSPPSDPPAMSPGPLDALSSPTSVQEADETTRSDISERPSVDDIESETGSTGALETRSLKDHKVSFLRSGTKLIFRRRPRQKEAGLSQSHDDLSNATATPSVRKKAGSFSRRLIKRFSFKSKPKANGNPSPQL
# Some of the results follow. Most entries show no effect beyond the scatter of the controls.
# Compound: CN[C@@H]1C[C@H]2O[C@@](C)([C@@H]1OC)n1c3ccccc3c3c4c(c5c6ccccc6n2c5c31)C(=O)NC4 [staurosporine]
# Test: log2 fold change of tryptic peptide abundance, ligand vs vehicle (limited proteolysis) (log2 ratio); higher = more trypsin-susceptible (destabilized)
# Conditions: ligand concentration: 20 uM; sample: K562 cleared lysate; digestion: 4 min, 22 C (HT-PELSA RT4min, Orbitrap Astral)
row,Target,log2 fold change
1,"GOSR2 (peptide sequence: LEILSSKEPPNKR, peptide start residue: 51) (UniProt O14653)",0.236
2,"UniProt O15037 (peptide sequence: RQLLEVFWGQDHK, peptide start residue: 640)",-0.762
3,"SPTLC2 (peptide sequence: ANGCVANGEVR, peptide start residue: 16) (UniProt O15270)",-0.331
4,"UniProt O14924 (peptide sequence: VLVVDLGGSSSR, peptide start residue: 438)",-0.192
5,"UniProt O14771 (peptide sequence: AALGPVVGAR, peptide start residue: 288)",-0.237
6,"MCRIP1 (peptide sequence: SPPSSSEIFTPAHEENVR, peptide start residue: 21) (UniProt C9JLW8)",-0.0656
7,"DVL1 (peptide sequence: YGTSPCSSAVTR, peptide start residue: 377) (UniProt O14640)",-0.367
8,"UBFD1 (peptide sequence: IMVVGSTINDVLAVNTPK, peptide start residue: 150) (UniProt O14562)",-0.127
9,"MIF4GD (peptide sequence: GEPSREEYK, peptide start residue: 2) (UniProt A9UHW6)",-0.118
10,"NACA (peptide sequence: IEDLSQQAQLAAAEKFK, peptide start residue: 1991) (UniProt E9PAV3)",-0.126
11,"C2CD2L (peptide sequence: QKEAGLSQSHDDLSNATATPSVR, peptide start residue: 654) (UniProt O14523)",-0.612

# As entered above:
# UniProt O14924 (peptide sequence: VLVVDLGGSSSR, peptide start residue: 438) – log2 fold change: -0.192
# C2CD2L (peptide sequence: QKEAGLSQSHDDLSNATATPSVR, peptide start residue: 654) (UniProt O14523) – log2 fold change: -0.612
